These are yes or no findings as the source states them, for the method shown. Some entries that bind do so weakly or less than the wild type. For some assays here: Tags and fused reporters may be left off the sequences shown.
Tests used:
[1] = target: Recombinant canine IL23 (single chain p40 + linker + p19, Avitag, polyHis tag) (canine); experiment: Biacore affinity assay ('Active' = specific binding to canine IL23)
Canine p40 polypeptide = target: T1, Canine p40 polypeptide (canine, UniProt Q28268 23-329); experiment: SPR, Biacore 8K
T1 sequence (looked up): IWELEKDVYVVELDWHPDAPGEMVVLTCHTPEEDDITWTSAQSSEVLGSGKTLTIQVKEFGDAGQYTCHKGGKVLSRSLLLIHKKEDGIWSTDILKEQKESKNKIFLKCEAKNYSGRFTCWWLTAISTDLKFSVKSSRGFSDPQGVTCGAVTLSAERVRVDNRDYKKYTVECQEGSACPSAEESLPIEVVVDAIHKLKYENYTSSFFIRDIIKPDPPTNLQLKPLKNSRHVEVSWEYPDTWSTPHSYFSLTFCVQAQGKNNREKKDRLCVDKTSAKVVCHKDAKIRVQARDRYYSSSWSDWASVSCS

B1: Anti-IL23 caninized VL variant V2 / C340 VH (antibody, human IgG1, V domains shown)
VH: EVQLVQSGAEVKKPGESLKISCKGSGYSFTTYWLGWVRQMPGKGLDWIGIMSPVDSDIRYSPSFQGQVTMSVDKSITTAYLQWNSLKASDTAMYYCARRRPGQGYFDFWGQGTLVTVSS
VL: DIVMTQTPLSLSVSPGEPASISCRASQGISSWLAWYLQKAGQSPRLLPYAASSLQSGVPDRFSGSGSGTDFTLRIGRVEAEDAGIYYCQQYNIYPYTFGQGTRLEVR
binding [1]: binds

B2: Chimeric anti-IL23 antibody (clone C340 VL and VH domains fused to canine kappa light chain constant region and canine IgG-B constant region) (antibody, V domains shown)
VH: EVQLVQSGAEVKKPGESLKISCKGSGYSFTTYWLGWVRQMPGKGLDWIGIMSPVDSDIRYSPSFQGQVTMSVDKSITTAYLQWNSLKASDTAMYYCARRRPGQGYFDFWGQGTLVTVSS
VL: DIQMTQSPSSLSASVGDRVTITCRASQGISSWLAWYQQKPEKAPKSLIYAASSLQSGVPSRFSGSGSGTDFTLTISSLQPEDFATYYCQQYNIYPYTFGQGTKLEIKR
notes: also called Anti-IL23-VH-VL; Anti-IL23 (full length IgG form)
binding (Canine p40 polypeptide): binds

Reference: patent US20260209333A1 (VETMAB BIOSCIENCES, published 2026)
